Results from CN116063501A.
These are yes or no findings as the source states them, for the method shown. Some binding calls cover weakened binding; strength is not graded here.

Biological target: CD4抗原 (UniProt P01730)
Assay: flow cytometry on a mixture of K562-CD4 and K562 cells; 1 μg antibody; APC goat anti-mouse IgG secondary

B1: 抗CD4-1抗体 (antibody, V domains shown)
VH: EVQLQQSGPELVKPGDSVKMSCKASGYTFTDYFMDWVKQSHGKSLEWIGYIYPNNGGTNNNQKFKGKATLTVDKSSSTAYMELHSLTSEDSAVYYCARRGYDEGFAYWGQGTLVTVSS
VL: DILLTQSPAILSVSPGERVSFSCRASQIIGTSILWYQQRTNGSPRLLIKYASESISGIPSRFSGSGSGTDFTLSINSVESEDIADYYCQQSNTWPFTFGGGTKLEMK
binding: binds
